## Screening data, single-dose tests

Data taken from ChEMBL document CHEMBL3988442, “University of Dundee, Small-Polar-MMV Screening Library” (2021).

Results are given as percent effect.
The record does not define 0% and 100%; most values in the screen are far below 50% and negative numbers occur (in some assays of this library far below -100).
Compounds were drawn at random from those tested, without regard to their results.

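Whole-parasite assay of Trypanosoma brucei over 72 hours; the read-out is not stated. Tested at 30 µM. Higher reads as stronger inhibition (inferred: compounds with an IC50 in retests scored well above the rest). Values scatter widely below zero; nearly all retest evidence comes from the higher of the two concentrations used. Size under these conditions: about 64,000 compounds, about 940 of them at 50% or above in at least one test.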

| # | compound | Percent Effect |
|---|---|---|
| 1 | `CCNC(=O)[C@@H]1C[C@H](N)CN1Cc1ccc(Sc2ccc(C)cc2)o1` | 18.4 |
| 2 | `Cc1nn(C)c2c(=O)n(CC(=O)NCC3CCCO3)ccc12` (stereo not given) | -1.766 |
| 3 | `Cc1nc(Nc2ncccn2)cc(C2CCCN2CC(C)C)n1` (stereo not given) | -16.62 |
| 4 | `CN(C)[C@H]1CN(C(=O)CCCc2ccc(F)cc2)C[C@@H]1C1CC1` | 21.51 |
| 5 | `CC(=O)N1CCCN(C(=O)NCCc2ccc(Cl)s2)CC1` | 16.25 |
| 6 | `CCSCc1cccc(NC(=O)N(C)Cc2ncnn2C)c1` | -14.47 |
| 7 | `CCCN(CCc1ccccn1)C(=O)Cn1cc(C)cn1` | -46.17 |
| 8 | `O=C(O)C(F)(F)F.[H][C@@]12CCN(c3ccc(C)nn3)[C@@]1([H])CCN2C(=O)Cc1cccs1` | -82.61 |
| 9 | `Cc1nccn1C1CCCN(C(=O)CCCNc2ncccn2)C1` (stereo not given) | 13.24 |
| 10 | `Cc1cc(C)c(C(=O)N2CCOCC2c2c(C)n[nH]c2C)o1` (stereo not given) | -3.834 |
| 11 | `COc1cc(F)ccc1-c1cc(N)ccn1` | -64.64 |
| 12 | `COCC(=O)N1CCC(c2cncc(-c3cccc(F)c3)n2)CC1` | 21.74 |
| 13 | `CN1CCC2(COCCN(Cc3cccc(C#N)c3)C2)C1.O=C(O)C(F)(F)F.O=C(O)C(F)(F)F` (stereo not given) | -59.95 |
| 14 | `Cc1ccc(C(C)NC(=O)Nc2ccccc2CN2CCOCC2)o1` (stereo not given) | 10.5 |
| 15 | `Cc1cc(CN2CCN(C(=O)Cc3ccccc3F)CC2)on1` | 11.66 |
| 16 | `O=C(c1cccnc1N1CCOC(c2ccc(Cl)cc2)C1)N1CCCC1` (stereo not given) | -64.85 |
| 17 | `Cc1ccc(F)cc1NC(=O)CNc1cccc2c1CCCC2` | -15.74 |
| 18 | `Cc1ccc(C)c(NS(=O)(=O)c2cc3c(c(C(=O)O)c2)OCCO3)c1` | -16.81 |
| 19 | `O=C(O)C(F)(F)F.[H][C@@]12CCN(c3ccc(C)nn3)[C@@]1([H])CCN2C(=O)c1cscn1` | -15.33 |
| 20 | `Cc1ccc(C(=O)Cc2c(Cl)nc3n(C)c(=O)n(C)c(=O)n23)cc1` | -33.78 |
| 21 | `Cn1nnc2cc(C(=O)NS(=O)(=O)c3ccc(F)cc3)ccc21` | 5.5 |
| 22 | `O=C(C1CC=CC1)N1CCC2(CC1)CN(Cc1ccccn1)CCO2` | 9.558 |
| 23 | `[H][C@@]12CS(=O)(=O)C[C@]1([H])N(Cc1cc(F)cc(Cl)c1)CCN2CCO` | -50.9 |
| 24 | `O=C(O)C(F)(F)F.[H][C@@]12CN(C(=O)C3(C#N)CC3)C[C@]1([H])C(=O)N(Cc1csc(C)n1)C2` | -12.26 |
| 25 | `Cc1ccc(CN2CCc3[nH]nc(C(=O)N4CCNC(=O)C4)c3C2)s1.O=C(O)C(F)(F)F` | -48.06 |
| 26 | `COc1ccccc1CN1C[C@@H](F)[C@@H](OCc2nc3ccccc3[nH]2)C1` | 3.353 |
| 27 | `CCc1nc(CC(=O)N2CCCC2Cn2cccn2)cs1` (stereo not given) | -5.399 |
| 28 | `CCN(CC)S(=O)(=O)c1ccc(CCC(=O)NCc2cc(C)on2)cc1` | -181.3 |
| 29 | `O=C(CSc1ccc(F)c(F)c1)NS(=O)(=O)c1ccc2c(c1)OCCO2` | -8.026 |
| 30 | `Cc1cnn(C2CN(Cc3noc(-c4ccccc4)n3)C2)c1` | -311.9 |
| 31 | `[H][C@@]12CN(C(=O)c3cnn(C)c3)CCO[C@]1([H])CN(C1CCC1)C2` | -37.33 |
| 32 | `COCCN(CC(F)F)c1cc(COC)nc2ncnn12` | -52.65 |
| 33 | `CC(C(=O)NCCCN1CCOCC1)n1cncn1` (stereo not given) | -32.96 |
| 34 | `Cc1cnn(CC2CCCN2CC(=O)Nc2cc(C)nn2C)c1` (stereo not given) | 2.081 |
| 35 | `[H][C@@]12CCCCN(CC(N)=O)[C@]1([H])CN(C(=O)c1ccccc1OC)C2` | -21.08 |
| 36 | `COc1ccc(CN2CCn3c(C(=O)N(C)C)cnc3C2)cc1.O=C(O)C(F)(F)F` | -109.7 |
| 37 | `CCc1ccccc1OC1CN(C(=O)c2sccc2N)C1` | -4.777 |
| 38 | `CC(C)CCn1ccc(NC(=O)N2CCCC2C(C)(C)O)n1` (stereo not given) | -5.684 |
| 39 | `c1cnnc(NCC2CN(Cc3cccc4c3OCCO4)CCO2)c1` (stereo not given) | 12.14 |
| 40 | `CN(C)CCN1CCOCC2(C1)CN(Cc1nccs1)CCO2.O=C(O)C(F)(F)F.O=C(O)C(F)(F)F.O=C(O)C(F)(F)F` (stereo not given) | -44.66 |
| 41 | `N#Cc1ncn(CC(=O)Cc2c(F)cccc2Cl)n1` | 12.73 |
| 42 | `Fc1cccc(Cl)c1Cn1ncnc1CSCCN1CCCC1` | 35.89 |
| 43 | `CC(C)(C)c1nc(CN2CCCC2Cn2cncn2)no1` (stereo not given) | -15.4 |
| 44 | `CN(CCN1CCOC1=O)CC(=O)Nc1ccc(Cl)c(C(F)(F)F)c1` | -21.74 |
| 45 | `CSC1(CNC(=O)c2ccn(-c3ccccc3F)n2)CCOCC1` | -31.97 |
| 46 | `CN1CCN(c2nsc(-c3ccccc3)c2C#N)CC1` | 9.035 |
| 47 | `O=C(c1cccn2ccnc12)N1CCCN(c2cccnn2)CC1` | -19.86 |
| 48 | `Cc1cc(N(Cc2ccccn2)C2CC2)n2nc(C(F)(F)F)nc2n1` | -19.4 |
| 49 | `CC(C)n1nc2c(cc1=O)CN(Cc1ccc(-n3cccn3)cc1)CC2` | 3.814 |
| 50 | `O=C(O)C(F)(F)F.O=C(O)C(F)(F)F.[H][C@@]12CCCO[C@]1([H])[C@H](N(C)Cc1ccco1)CN(Cc1ccsc1)C2` | 27.39 |
| 51 | `O=C(O)C(F)(F)F.O=C(O)C(F)(F)F.O=C(O)C(F)(F)F.[H][C@@]12CCN(Cc3ccc(C)o3)C[C@]1([H])[C@@H](CN1CCN(C)CC1)OC2` | -2.5 |
| 52 | `CC(=O)N(C)Cc1ncn2c1CN(C(=O)C1CCCO1)CCC2` (stereo not given) | -6.237 |
| 53 | `Cc1ccc(N2CCCN(C(=O)c3cc(CC(C)C)n[nH]3)CC2)nn1` | -1.41 |
| 54 | `COc1ccc([C@@H]2CN(C(=O)c3cscn3)C[C@H]2C(=O)O)cc1` | -6.366 |
| 55 | `Cc1c(C2N3C[C@]4(C(C)C)CN2C[C@](C(C)C)(C3)C4=O)[nH]c(=O)[nH]c1=O` (stereo not given in full) | -57.41 |
| 56 | `CN1CCN(CC(C)(C)C)CC1CCO` (stereo not given) | -48.7 |
| 57 | `O=C(O)C(F)(F)F.O=C(O)C(F)(F)F.c1ccc(CN2CCCC3(CCN(CC4CCCO4)CC3)C2)nc1` (stereo not given) | 1.149 |
| 58 | `CN(C)CCN(C)C1CCN(C(C(=O)O)c2ccc(F)c(Cl)c2)CC1` (stereo not given) | 5.946 |
| 59 | `Cc1nnc(NCc2cccc(OCc3ccccn3)c2)c(C#N)c1C` | -63.81 |
| 60 | `CC(C)[C@H]1COC(=O)N1CC(=O)N(C)CCCn1cccn1` | -7.189 |
| 61 | `N#Cc1ccc(CN2C(=O)c3ccccc3CS2(=O)=O)c(F)c1` | -48.6 |
| 62 | `CCc1noc(C(C)N2CCN(Cc3nnc(C4CC4)o3)CC2)n1` (stereo not given) | -9.265 |
| 63 | `COCCCC1CCCCN1C(=O)c1ccc(SCCO)cc1` (stereo not given) | -11.55 |
| 64 | `CCN(CC)S(=O)(=O)NCc1ccc(-c2ccc(C(N)=O)c(C)n2)cc1` | -8.836 |
| 65 | `O=C(O)C(F)(F)F.[H][C@]12CN(CCN(C)C)C(=O)[C@@]1([H])CN(c1ccccc1)C2` | -19.77 |
| 66 | `CC(C)c1n[nH]c(C2CN(CCCS(C)(=O)=O)CCO2)n1` (stereo not given) | -3.142 |
| 67 | `COc1cccc2c1N(CC(=O)Nc1ccc(Br)cn1)CCC2` | -48.01 |
| 68 | `Cc1csc(N2CCN(C(=O)NCCNc3ncccn3)CC2)n1` | -27.18 |
| 69 | `CC(C)C(=O)NC1COC2(CCN(C(=O)c3cccnc3)CC2)C1` (stereo not given) | -10.92 |
| 70 | `CC(C)(C)c1cn(C[C@H]2CC3CCN2C[C@@H]3C(=O)N2CCOCC2)nn1` (stereo not given in full) | -2.651 |
| 71 | `O[C@@H]1C[C@@H](c2nc(-c3cccnc3)no2)N(C2CCOCC2)C1` | -48.74 |
| 72 | `COc1cccc(S(=O)(=O)NC(=O)c2c(C)noc2C(C)C)c1` | 16.46 |
| 73 | `CCc1nnc(CN(CC)C(=O)C(C)n2ccnc2C(C)C)o1` (stereo not given) | -1.999 |
| 74 | `Cc1cccc(S(=O)(=O)N2CCCC3(CCCN3S(C)(=O)=O)C2)c1` (stereo not given) | -62.47 |
| 75 | `Cc1nnc(SCCCNC(=O)Nc2ccc3c(c2)OCO3)s1` | -43.48 |
| 76 | `COCC(=O)N1CCCN(Cc2cc(C(C)C)no2)CC1` | -21.36 |
| 77 | `CC(=O)N1CCC2(CCN(C(=O)c3ccc(C)c(C(F)(F)F)c3)CC2)C1` | -41.19 |